In PubChem BioAssay AID1347431 (National Center for Advancing Translational Sciences (NCATS), 2020):
Screen size: about 1,200 compounds; fewer than 10 were called active. Calls follow the shape of the dose curve; as a rule, active = well fitted curve in the direction sought with a large enough effect; inconclusive = small, poorly fitted or top-dose-only effect, or another doubt; inactive = no such curve, though single readings can be large or run the other way. This is one part of the list.

Assay: Confirmatory qHTS assay for inhibitors of Activation Induced Cytidine Deaminase (AID): UDG signals; also: 0% is about no effect
Details: UDG coupled enzyme activity counter-screen; at 115 µM (top of the series) unless noted
Procedure, shortened: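 Fluorescence at 560 nm excitation/665 nm emission reports UDG activity, read after NaOH quench of a 4 h room-temperature reaction of DJC20/DJC23 substrates with AID (1 uM, 4/3x) and UDG (2 U/mL, 4/3x); compounds at 7.32 nM - 114 uM final, preincubated 10 min.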

SMILES	activity change, negative = inhibition
Cc1ccc2c(c1)C(c1ccccc1)N(C(=O)COc1ccc(Cl)cc1Cl)CC(=O)N2 (centres undefined)	inactive: -12.5%
CCN(CC)CCCC(C)Nc1c2ccc(Cl)cc2nc2ccc(OC)cc12 (centres undefined)	inactive: -6.08%
CCc1cccc(-n2c(C)nc3c(cnn3-c3ccc(Cl)cc3)c2=O)c1	inactive: 2.34%
Cc1ccc(-c2cc3ncc(C(=O)c4cc([N+](=O)[O-])ccc4O)cn3n2)cc1	inactive: -1.25%
CCCN(CCC)C(=O)Cn1c(=O)n(Cc2ccc(C(=O)NCCc3ccc(OC)c(OC)c3)cc2)c(=O)c2ccccc21	inactive: 2.87%
CC1CCCCN1C(=O)c1ccc2c(c1)N(Cc1ccc(Cl)cc1)C(=O)c1ccccc1S2=O (centres undefined)	inactive: 0.84%
COc1cc2c(=O)c(C(=O)c3ccc(C)c(C)c3)cn(Cc3ccc(F)cc3)c2cc1OC	inactive: -7.32%
CCc1nn2c(-c3ccccc3OC)ccnc2c1-c1ccccc1	inactive: -8.21%
Nc1c(S(=O)(=O)O)cc(Nc2ccc(Nc3nc(Cl)nc(Nc4ccc(S(=O)(=O)O)cc4)n3)c(S(=O)(=O)O)c2)c2c1C(=O)c1ccccc1C2=O	inactive: -6.96%
Cc1ccc(C(=O)c2cn(Cc3ccccc3)c3nc(C)ccc3c2=O)cc1	inactive: -10.6%
CC1CCCCN1C(=O)CSc1nc2ccccc2nc1Cc1ccccc1 (centres undefined)	inactive: -1.92%
CCCN(CCC)CCCNC(=O)c1cc2c(-c3ccc(Cl)cc3)nn(C)c2s1	inactive: -16.3%
CC(CNC(=O)c1sc2ncccc2c1-n1cccc1)c1ccccc1 (centres undefined)	inactive: -6.13%
CCOc1ccc(N(CC)S(=O)(=O)N2CCCC(C(=O)NCCc3ccccc3OC)C2)cc1 (centres undefined)	inactive: -6.4%
Cc1cccc(N2CCN(C(=O)c3ccc4c(c3)c(C)c(C)n4C)CC2C)c1 (centres undefined)	inactive: -4.59%
COc1ccccc1CN1CCC(CNC(=O)c2cnn(-c3ccc(C)c(C)c3)c2C2CCN(C(=O)OC(C)(C)C)CC2)CC1	inactive: 9.38%
COc1ccc(-c2nc3c(c(SCC(=O)N4CCCCC4)n2)Cc2c(CO)cnc(C)c2O3)cc1	inactive: -2.63%
CCc1ccc2oc(-c3cc(NC(=O)c4cc([N+](=O)[O-])ccc4N4CCOCC4)ccc3Cl)nc2c1	inactive: -8.12%
O=C(NCc1cccs1)c1ccc(Cn2c(SCc3ccc(F)cc3)nc3cccnc32)cc1	inactive: -12.9%
Cc1ccc(C)c(N2CCN(C(=O)c3cc(S(=O)(=O)N4CCCCCC4)cn3C)CC2)c1	inactive: -10.3%

SMILES	activity change, negative = inhibition
CCOC(=O)c1cc(-c2ccc(OC)cc2)n(CCC(=O)Nc2nc3ccc(OCC)cc3s2)c1C	inactive: -0.904%
CCCn1cc(S(=O)(=O)c2ccccc2)c(=O)c2cc(F)c(N3CCCCC3)cc21	inactive: 1.12%
CCC(C)n1c(=N)c(C(=O)NCc2ccccc2)cc2c(=O)n3cc(C)ccc3nc21 (centres undefined)	inactive: -13%
Cc1ccc(Cc2c(C)nc3nc(SCC(=O)NC(C)c4ccccc4)nn3c2C)cc1 (centres undefined)	inactive: -5.73%
COc1ccccc1NC(=O)CSc1nnc2c3ccccc3n(C(C)C)c2n1	inactive: -6.75%
COc1ccccc1Nc1nn2c(=O)c3ccc(C(=O)N4CCC(C)CC4)cc3nc2s1	inactive: -0.185%
CCN(C(=O)CCc1nc(-c2ccc(C)cc2)no1)c1cc(C)ccc1C	inactive: -8.41%
CCCCOc1ccc(C2=NC(c3ccncc3)=Nc3ccc(Br)cc3N2)cc1	inactive: -4.6%
CCn1cc(S(=O)(=O)c2ccc(OC)cc2)c(=O)c2cc(F)c(N3CCC(C)CC3)cc21	inactive: -7.33%
Cc1ccc(CN(Cc2ccco2)C(=O)COc2c(C)cc(C)cc2C)cc1	inactive: -3.72%
COc1cc2c(=O)c(C(=O)c3ccc(C)c(C)c3)cn(Cc3ccccc3)c2cc1OC	inactive: 3.4%
N#C/C(=C\c1ccc(-c2ccccc2C(=O)O)o1)c1nc2ccccc2[nH]1	inactive: -2.29%
Cc1cc(-c2ccc(C)c(S(=O)(=O)N3CCCC(C)C3)c2)on1 (centres undefined)	inactive: -7.21%
Cc1ccccc1CN1CCC(CNc2ncnc3onc(-c4ccc(Cl)cc4)c23)CC1	inactive: 2.19%
COc1cc(NC(=O)Cn2cc(S(=O)(=O)N3CCC(C)CC3)c3ccccc3c2=O)cc(OC)c1OC	inactive: -13.2%
Cc1ccc(C(=O)c2cn(CC(=O)Nc3ccc4c(c3)OCCO4)c3nc(C)ccc3c2=O)cc1	inactive: -1.14%
CCc1ccc(OCC2c3cc(OC)c(OC)cc3CCN2C(=O)Cc2ccc(OC)c(OC)c2)cc1 (centres undefined)	inactive: -6.81%
Cc1cccc(N2CCN(C(=O)c3c4c(nc5ccccc35)C(=O)N(C3CCCCC3)C4)CC2)c1C	inactive: -10.3%
CN(C)S(=O)(=O)N(CC(=O)NCCSc1ccc(Cl)cc1)c1ccccc1	inactive: -6.14%

Two compounds drawn at random from those above:
SMILES	activity change, negative = inhibition
COc1ccccc1NC(=O)CSc1nnc2c3ccccc3n(C(C)C)c2n1	inactive: -6.75%
CCCCOc1ccc(C2=NC(c3ccncc3)=Nc3ccc(Br)cc3N2)cc1	inactive: -4.6%
